Experimental data: PMC6147608

By UniProt entry, the sequences of proteins in these tests, tags left out. Residues count along the entry.
UniProt P42003, 26-150: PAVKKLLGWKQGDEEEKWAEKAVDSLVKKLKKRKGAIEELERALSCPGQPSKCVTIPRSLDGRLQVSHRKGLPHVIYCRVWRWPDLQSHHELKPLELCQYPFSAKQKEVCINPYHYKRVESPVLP
UniProt Q9U1K4, entry or part of it: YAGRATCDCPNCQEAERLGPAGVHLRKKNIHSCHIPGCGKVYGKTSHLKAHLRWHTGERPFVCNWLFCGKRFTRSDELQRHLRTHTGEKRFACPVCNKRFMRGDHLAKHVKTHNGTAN

molecular target: T1, Distal-less (Dll) (Drosophila melanogaster) (UniProt P20009); assay: EMSA; settings: EMSA as previously described (ref 53); pH and temperature not given; recombinant protein; residues 1-327; protein details: His
T1 sequence (looked up): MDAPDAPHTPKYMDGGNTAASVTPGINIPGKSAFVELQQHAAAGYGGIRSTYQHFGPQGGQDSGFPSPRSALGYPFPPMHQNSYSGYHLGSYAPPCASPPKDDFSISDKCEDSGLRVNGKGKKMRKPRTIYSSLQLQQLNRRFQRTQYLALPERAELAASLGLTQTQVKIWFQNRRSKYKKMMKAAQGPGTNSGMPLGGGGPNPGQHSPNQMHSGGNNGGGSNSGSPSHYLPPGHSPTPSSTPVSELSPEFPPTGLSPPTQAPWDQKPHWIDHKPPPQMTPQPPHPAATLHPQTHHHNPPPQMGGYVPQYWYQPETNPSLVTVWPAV

Binding result, binds:
CAGCTTTTGCTGGCGCTGCTTAATAAACAATCATCAGCAACAACGGAGAGGTCGCCTCC (double strand) [vnE Dll sites 9 and 10], GGTCTTGGCCTATAATTTGCTGCTGTTGCTGCCGGAGAGGTCGCCTCC (double strand) [vnE Dll site 5], TGCTGGCGGCCACGTCGGTGCCGAGGAGCTTAATTAAAGAGCGCGGAGAGGTCGCCTCC (double strand) [vnE Dll site 2], GACGCTGACGGGTTTTGTATAAACAAGTCGAAGTCAGCTCTCCGGAGAGGTCGCCTCC (double strand) [vnE Dll site 6], AACTCGCTAAATATTTCAGTTAACGCTTTGGTGGTCCGGAGAGGTCGCCTCC (double strand) [vnE Dll site 4], ATGCGCAAATTATATGGCCAAGACTGGACGGCGGACCCGGAGAGGTCGCCTCC (double strand) [vnE Dll site 8], GGCTTCCTGGAAATCAAAGAGACAAACTCGCCGGAGAGGTCGCCTCC (double strand) [vnE Dll site 3], CGAAGTCAGCTCTCAATCATAAATGAATCATGCGCACGGAGAGGTCGCCTCC (double strand) [vnE Dll site 7], CAGGCCGGGGTGGGATGGATAAAATGCACTTCCTGCTGGCCGGAGAGGTCGCCTCC (double strand) [vnE Dll site 1 / Sp1 site 2]

molecular target: Mad MH1 domain (Drosophila melanogaster) (UniProt P42003); assay: EMSA; settings: EMSA as previously described (ref 53); pH and temperature not given; recombinant protein; protein details: His

Binding result, binds:
TCCTGCTGGCGGCCAGTAAAGTTATTCATTG (double strand) [vnE Mad site 4], CACGTCGGTGCCGAGGTAAAGTTATTCATTG (double strand) [vnE Mad site 5]

molecular target: T2, Pan HMG domain (Drosophila melanogaster) (UniProt P91943); assay: EMSA; settings: EMSA as previously described (ref 53); pH and temperature not given; recombinant protein; protein details: His
T2 sequence (looked up, limits assumed): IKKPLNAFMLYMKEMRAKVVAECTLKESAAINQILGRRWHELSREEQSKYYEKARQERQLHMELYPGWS

Binding result, binds:
CCTGGAAATCAAAGAGGCGGAGAGGTCGCCTCC (double strand) [vnE Pan site 4]

molecular target: Sp1 zinc-finger fragment (Drosophila melanogaster) (UniProt Q9U1K4); assay: EMSA; settings: EMSA as previously described (ref 53); pH and temperature not given; recombinant protein; protein details: His

Binding result, binds:
GTGTATTTGTGGGCGGCAGGAGCAGCTACCCAGAGGTGAACGGAGAGGTCGCCTCC (double strand) [vnE Sp1 site 1 / scanning Oligo 14], CAGGCCGGGGTGGGATGGATAAAATGCACTTCCTGCTGGCCGGAGAGGTCGCCTCC (double strand) [vnE Dll site 1 / Sp1 site 2]

Construct, isoform or probe ends are uncertain for at least one entry. At least one verdict was read from the data and is not stated in words by the source. For some assays here: Where a protein sequence is shown, tags need not be part of it.
